Consider two molecules from US10215752B2, “Nanotube array for optical detection of protein-protein interactions” (MASSACHUSETTS INSTITUTE OF TECHNOLOGY, priority 2010, dated 2019).

One series deals with antiHis Ab. The experiment in a line: Protein-protein interaction on SWNT/CHI array, Förster distance calculation. The following applies: distance change after analyte protein antiHis Ab, Förster equation.
In series [1] the test system is Ni-NTA functionalized SWNT/CHI array. The experiment in a line: On-chip cell-free expression and immobilization of His-tag capture proteins, nIR fluorescence of SWNT/CHI array. The conditions noted are these: distance change between Ni2+ ion and SWNT after receptor protein, Förster resonance energy transfer equation.

B1: Ada: E. coli protein (ExPASy P06134), cell-free expressed with C-terminal His-tag (protein)
chain: MKKATCLTDDQRWQSVLARDPNADGEFVFAVRTTGIFCRPSCRARHALRENVSFYANASEALAAGFRPCKRCQPEKANAQQHRLDKITHACRLLEQETPVTLEALADQVAMSPFHLHRLFKATTGMTPKAWQQAWRARRLRESLAKGESVTTSILNAGFPDSSSYYRKADETLGMTAKQFRHGGENLAVRYALADCELGRCLVAESERGICAILLGDDDATLISELQQMFPAADNAPADLMFQQHVREVIASLNQRDTPLTLPLDIRGTAFQQQVWQALRTIPCGETVSYQQLANAIGKPKAVRAVASACAANKLAIIIPCHRVVRGDGTLSGYRWGVSRKAQLLRREAENEERHHHHHH
Regarding B1, the Δd2 in the series on antiHis Ab is on record as −0.02568. Moreover, in series [1], the Δd1 came to 0.1508 nm.

B2: CDK4: human derived protein (ExPASy P11802), on-chip cell-free expressed with His-tag (protein, UniProt P11802 2-303, looked up)
Cyclin-dependent kinase 4: ATSRYEPVAEIGVGAYGTVYKARDPHSGHFVALKSVRVPNGGGGGGGLPISTVREVALLRRLEAFEHPNVVRLMDVCATSRTDREIKVTLVFEHVDQDLRTYLDKAPPPGLPAETIKDLMRQFLRGLDFLHANCIVHRDLKPENILVTSGGTVKLADFGLARIYSYQMALTPVVVTLWYRAPEVLLQSTYATPVDMWSVGCIFAEMFRRKPLFCGNSEADQLGKIFDLIGLPPEDDWPRDVSLPRGAFPPRGPRPVQSVVPEMEESGAQLLLEMLTFNPHKRISAFRALQHSYLHKDEGNPE
modifications: His-tag
B2 came in with a Δd1 in series [1] of 0.07655 nm.
